The record followed here is the supplement of paper PMC10735217.

Counter-ions that a name gives are not always drawn. The list shows a part of the results. This data set is noisy: repeats of one test often differ as much as different tests do.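 Human kidney-derived cells stably carry a construct in which eight TEAD-binding elements drive luciferase, measured by luminescence in a drug-repurposing library screen. A hit is any compound whose signal exceeds the plate mean by more than five robust Z scores.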

In this assay the test system is HEK293A TEAD-LUC reporter. Kind of assay: TEAD-luciferase reporter activity (YAP activation), robust Z score vs plate; higher = stronger YAP/TEAD activation. Particulars: 24 h.

Regarding `CCOC(=O)CCNC(=O)N[C@H]1CCN(c2ccc(C(=N)NOC(=O)OCC)cc2)C1=O`, the TEAD-luciferase reporter activity is, setting by setting: (compound concentration: 200 nM) inactive: -0.831; (compound concentration: 2 uM) inactive: -0.0804; (compound concentration: 10 uM) inactive: 1.26.
On to `OC(CO/N=C(\Cl)c1cccnc1)CN1CCCCC1` (stereo unspecified), for which the TEAD-luciferase reporter activity (compound concentration: 200 nM) was inactive: -1.38, the TEAD-luciferase reporter activity (compound concentration: 2 uM) is inactive: 2.56 and the TEAD-luciferase reporter activity (compound concentration: 10 uM) was active: 8.19.
In the same order, the values of `C[C@H](N)C(=O)N[C@@H](CCC(=O)O)C(=O)N[C@@H](CC(=O)O)C(=O)NCC(=O)O` [Epithalon] are inactive: -0.935, inactive: -1.12 and inactive: -1.37.
For the compound `N=C(N)NCc1cccc(I)c1` [Iobenguane sulfate], the TEAD-luciferase reporter activity (compound concentration: 2 uM) was inactive: 0.0616.
As to `N=C(N)NCc1cccc(I)c1` [m-Iodobenzylguanidine hemisulfate], the TEAD-luciferase reporter activity (compound concentration: 200 nM) was active: 6.49 and the TEAD-luciferase reporter activity (compound concentration: 10 uM) was inactive: 0.789.
Turning to `CCCCCCCCNC(=O)/C(C#N)=C\c1c(C)n(CCCN(C)C)c2ccccc12`, the TEAD-luciferase reporter activity (compound concentration: 2 uM) was inactive: 0.481.
On the same count and under the same terms, to `CC(C)(CC1Cc2ccccc2C1)NC[C@@H](O)COc1cc(CCC(=O)O)ccc1C#N` belongs inactive: -0.347.
`C=CC(=O)Nc1cc(Nc2nccc(-c3cn(C)c4ccccc34)n2)c(OC)cc1N(C)CCN(C)C`: the TEAD-luciferase reporter activity was inactive: 1.63 (compound concentration: 200 nM), inactive: 0.621 (compound concentration: 2 uM) and inactive: 3.18 (compound concentration: 10 uM).
`COc1cc2c(Oc3ccc(NC(=O)C4(C(=O)Nc5ccc(F)cc5)CC4)cc3F)ccnc2cc1OCCCN1CCOCC1` [foretinib]: the TEAD-luciferase reporter activity was inactive: -0.914 (compound concentration: 200 nM), inactive: -2.3 (compound concentration: 2 uM) and inactive: -2.03 (compound concentration: 10 uM).
Turning to `Nc1ccn([C@@H]2O[C@H](CO[P@@]3(=O)OCC[C@@H](c4ccncc4)O3)[C@@H](O)[C@@H]2O)c(=O)n1`, the TEAD-luciferase reporter activity runs as follows: (compound concentration: 200 nM) inactive: -1.03; (compound concentration: 2 uM) inactive: -1.02; (compound concentration: 10 uM) inactive: -1.01.
In the same order, the values of `CCCCC(=O)c1cnc2c(OCCO)cccc2c1Nc1ccccc1C` are inactive: 1.5, inactive: -0.488 and inactive: 0.685.
With `CCOC(=O)C1=C(C)NC(C)=C(C(=O)OC)C1c1ccccc1OC(F)F` (stereo unspecified), the TEAD-luciferase reporter activity runs as follows: (compound concentration: 200 nM) inactive: 0.16; (compound concentration: 2 uM) inactive: -1.49; (compound concentration: 10 uM) inactive: 0.104.
For the compound `C=CC(C)(C)c1cc(/C=C/C(=O)c2ccc(O)cc2)c(OC)cc1O` [Licochalcone-A, Synthetic], the TEAD-luciferase reporter activity reads like this: (compound concentration: 200 nM) inactive: -0.621; (compound concentration: 10 uM) inactive: 0.867.
For `C=CC(C)(C)c1cc(/C=C/C(=O)c2ccc(O)cc2)c(OC)cc1O` [Licochalcone A], the TEAD-luciferase reporter activity (compound concentration: 2 uM) was inactive: -1.39.
For `COc1cc(/C=C/C(=O)N2CCN(CC3CCn4c(nc5ccccc54)S3)CC2)cc(OC)c1OC` (stereo unspecified), the TEAD-luciferase reporter activity reads like this: (compound concentration: 200 nM) inactive: -1.05; (compound concentration: 2 uM) inactive: -1; (compound concentration: 10 uM) inactive: 1.93.
For the compound `COc1cc2c(Nc3ccc(Sc4nccn4C)c(Cl)c3)c(C#N)cnc2cc1N1CCC(N2CCCC2)CC1` [balamapimod], the TEAD-luciferase reporter activity runs as follows: (compound concentration: 200 nM) inactive: -0.928; (compound concentration: 2 uM) inactive: 2; (compound concentration: 10 uM) inactive: 1.77.
In the same order, the values of `O=C(COCC(=O)Nc1c(I)cc(I)c(C(=O)O)c1I)Nc1c(I)cc(I)c(C(=O)O)c1I` are inactive: -0.45, inactive: -0.825 and inactive: 0.471.
In the same order, the values of `COc1cccc2[nH]c3c4c(c5c(c3c12)C(=O)NC5=O)CCC4` are inactive: -1.39, inactive: -0.574 and inactive: 1.21.
In the same order, the values of `CO/N=C(/C(=O)NC1C(=O)N2C(C(=O)O)=C(COC(C)=O)CSC12)c1csc(N)n1` (stereo unspecified) [cefotaxime salt] are inactive: 2.95, inactive: 0.534 and inactive: 0.716.
`Oc1cc(O)c2cc(O)c(-c3ccc(O)c(O)c3)[o+]c2c1` [Cyanidin chloride]: the TEAD-luciferase reporter activity by setting is: (compound concentration: 200 nM) inactive: 1.74; (compound concentration: 2 uM) inactive: -0.279; (compound concentration: 10 uM) inactive: -0.652.
In the case of `C[C@@H](C(=O)N1CCOCC1)N1CC[C@H](NS(=O)(=O)/C=C/c2ccc(Cl)s2)C1=O`, the TEAD-luciferase reporter activity by setting is: (compound concentration: 200 nM) active: 5.74; (compound concentration: 2 uM) inactive: -0.993; (compound concentration: 10 uM) inactive: -1.41.
With `CCCCn1c(=O)n(CCC)c(=O)c2c(NC)n(C(=O)OC)nc21`, the TEAD-luciferase reporter activity is inactive: -1.85 (compound concentration: 200 nM), inactive: 0.192 (compound concentration: 2 uM) and inactive: 3.24 (compound concentration: 10 uM).
As for `O=C(O)/C(=C\c1c(C(=O)O)[nH]c2cc(Cl)cc(Cl)c12)c1ccccc1`, the TEAD-luciferase reporter activity (compound concentration: 200 nM) was inactive: 0.759, the TEAD-luciferase reporter activity (compound concentration: 2 uM) is inactive: -1.96 and the TEAD-luciferase reporter activity (compound concentration: 10 uM) is inactive: -1.
Regarding `ClI(Cl)Cl` [Iodine trichloride], the TEAD-luciferase reporter activity was inactive: 0.245 (compound concentration: 200 nM), inactive: 0.906 (compound concentration: 2 uM) and inactive: 0.00217 (compound concentration: 10 uM).
In the same order, the values of `Cc1c(Br)ccc2c1CN1C(=N2)NC(=O)C1C` (stereo unspecified) are active: 5.84, inactive: 2.35 and inactive: -1.24.
As for `CN1CCc2c([N+](=O)[O-])cc3[nH]c(=O)c(=O)[nH]c3c2C1`, the TEAD-luciferase reporter activity reads like this: (compound concentration: 200 nM) inactive: -1.45; (compound concentration: 2 uM) inactive: -0.277; (compound concentration: 10 uM) inactive: 1.59.
In the same order, the values of `O=C(O)CCCCc1ccc(I)cc1` are inactive: -0.56, inactive: 0.194 and active: 8.94.
